The other results are listed elsewhere or left out.
Target: OsWRKY34 (Oryza sativa, UniProt Q0JBA9 1-250)
Assay: protein-binding microarray (RPBM); PBS, 2% BSA, 51.3 ng/ul salmon testes DNA, 50 uM zinc acetate, 200 nM TF, 25 C, 1 h; high values mean tight binding
Conditions: protein: recombinant; tags: N-terminal polyhistidine and DsRed monomer fusion (pET32a); label: CyDye5-dUTP incorporated in the synthesized complementary strand; 3' TTTTT single-stranded linker to array surface; dsDNA, one strand shown
Method in brief: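 Transcription factors were made in E. coli BL21-CodonPlus as N-terminal fusions to a polyhistidine tag and DsRed, then purified on Ni–NTA. After primer extension with Cy5-dUTP and blocking with 2% BSA, a custom Agilent array was exposed for 1 h at 25 °C to 200 nM protein in PBS, 2% BSA, salmon testes DNA and 50 µM zinc acetate. Washed arrays were scanned on an Axon 4000B, and the binding signal is per-feature fluorescence intensity in arbitrary units.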

Sequences of proteins named here, by UniProt entry; tags and fusion partners are left off.
UniProt Q0JBA9, entry or part of it: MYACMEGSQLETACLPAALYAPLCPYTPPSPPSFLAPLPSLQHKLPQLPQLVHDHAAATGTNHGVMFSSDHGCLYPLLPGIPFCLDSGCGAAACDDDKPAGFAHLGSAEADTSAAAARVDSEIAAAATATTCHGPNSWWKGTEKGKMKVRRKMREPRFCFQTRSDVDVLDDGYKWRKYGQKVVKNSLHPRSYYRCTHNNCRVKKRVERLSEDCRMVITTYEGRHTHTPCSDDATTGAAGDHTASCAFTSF

Compared with “CGTCTACCAGTTGATATGCCAATTTTTGTTGAGAAGTAATCGGAGTCACCTAGTGCAG”, “GGTGGGTGGCGCGGTGACCGGAGCCGGGGTGGCGGGTGTCCGGAGTCACCTAGTGCAG” is higher in binding signal: 9200 fluorescence intensity (a.u.) for the first, 10500 fluorescence intensity (a.u.) for the second.

Compared with “CCGCCGCTTCCTCGCCACCGCCGCTGCCGCCGCCACTTCCCGGAGTCACCTAGTGCAG”, “TAAAAATTTCATGACTGTTTCCATCTGTTTTTGTAAAAGTCGGAGTCACCTAGTGCAG” is lower in binding signal: 19400 fluorescence intensity (a.u.) for the first, 8530 fluorescence intensity (a.u.) for the second.

Going from “CCGCACGCATCGCCCACCCTTCGCCGCTCGGGCTCATCAGCGGAGTCACCTAGTGCAG” to “CATCCACCGTTGCTCGATTTCTCTCCTCTCCCGCGCCGCCCGGAGTCACCTAGTGCAG”, the binding signal rises from 8220 fluorescence intensity (a.u.) to 10200 fluorescence intensity (a.u.).

Compared with “TAGATGCTTCTTTCCCTTGTCATTATGTTTTCTTCCCTGACGGAGTCACCTAGTGCAG”, “TCTCCTCTCTCTCTCTCTCTCATTTCTCTCTCGTTTTCTTCGGAGTCACCTAGTGCAG” is higher in binding signal: 8020 fluorescence intensity (a.u.) for the first, 11400 fluorescence intensity (a.u.) for the second.

Compared with “TCACATCTCTTGTTTTCCACGCGCACGTTTTTTAAATTGCCGGAGTCACCTAGTGCAG”, “GTATCCTAATTTTCATAGTATCTCGATCCTACTATTCATTCGGAGTCACCTAGTGCAG” is higher in binding signal: 9140 fluorescence intensity (a.u.) for the first, 11300 fluorescence intensity (a.u.) for the second.

Compared with “GGGTTGAGATGGGAGTAGAGGGGAGTGAGGTGGAAGAAGACGGAGTCACCTAGTGCAG”, “TGTGGCTGTGCGTGTCTGATTCGTGTTCGCTTCTCCGACTCGGAGTCACCTAGTGCAG” is higher in binding signal: 8360 fluorescence intensity (a.u.) for the first, 9050 fluorescence intensity (a.u.) for the second.

Compared with “ACTTTTTCATTTTTCGTTTTCAAACCGTTTAACAGTGTATCGGAGTCACCTAGTGCAG”, “TCCTCTCCGATTTACTCCTCTCCTTTTTGCCCTATCGCCTCGGAGTCACCTAGTGCAG” is lower in binding signal: 10600 fluorescence intensity (a.u.) for the first, 10300 fluorescence intensity (a.u.) for the second.

Going from “CAAAATCCTACATGTATATGCATCTCATTTTGTTCTTTTACGGAGTCACCTAGTGCAG” to “CCCGCCCATCTGTCTCCATCTCTCCCCATCCTTTACTTTTCGGAGTCACCTAGTGCAG”, the binding signal rises from 9670 fluorescence intensity (a.u.) to 12300 fluorescence intensity (a.u.).

Going from “CTTTATTTTTTTTTCGGATCGAATTGCCACGTAAGCACCACGGAGTCACCTAGTGCAG” to “TACATATACGCTCGTCTCGCCGTCGCAACCTCGTCACCTACGGAGTCACCTAGTGCAG”, the binding signal falls from 8270 fluorescence intensity (a.u.) to 8110 fluorescence intensity (a.u.).

Compared with “GTTCGTGGTGGTACCGATTTCATTTTTTGCTATACATATGCGGAGTCACCTAGTGCAG”, “CGCACCCAGGAGACTGGAGCCGTCGCGTTGCGTTGACTCCCGGAGTCACCTAGTGCAG” is higher in binding signal: 8860 fluorescence intensity (a.u.) for the first, 10200 fluorescence intensity (a.u.) for the second.

Compared with “CGTCTAATCTGGTTTCCATCTACAGCAGTTGTATTCATCACGGAGTCACCTAGTGCAG”, “CTGGCGCATTTCGATTCGAGTTTGTCTCCTGCGCCTTCGACGGAGTCACCTAGTGCAG” is higher in binding signal: 9540 fluorescence intensity (a.u.) for the first, 11400 fluorescence intensity (a.u.) for the second.

Going from “GAAATGTGGGAGGGGTTTTCTTACAAATGTTATATAGACACGGAGTCACCTAGTGCAG” to “TCGTTCTTTAGTTTCTACCTTTGTGCTTGTGCGTTTGTAACGGAGTCACCTAGTGCAG”, the binding signal falls from 13900 fluorescence intensity (a.u.) to 9710 fluorescence intensity (a.u.).

First: GCAATTCCTGAATCTTTAACTATGCTGCTGCCTACTCTACCGGAGTCACCTAGTGCAG
Second: TAATTAGAGCTCATCACCACGCCTCTCGCCTCACATCATACGGAGTCACCTAGTGCAG
The binding signal of the first is lower: 8370 fluorescence intensity (a.u.) for the first, 9270 fluorescence intensity (a.u.) for the second.

First: GAATATTTTTCATAATCACCATCATCATTATTCTTCGCTACGGAGTCACCTAGTGCAG
Second: TCCCCAACCTCCGGCCAGCTCCAACCGCCGCCCACGCCGCCGGAGTCACCTAGTGCAG
The binding signal of the first is lower: 8040 fluorescence intensity (a.u.) for the first, 10300 fluorescence intensity (a.u.) for the second.

Going from “AACTCTATCTAGTTTGCTCAGACCCCACTGCTATTTTTTTCGGAGTCACCTAGTGCAG” to “GCCACAACCTCTAGTGCTCAACCAACAACCATCTCCTTTTCGGAGTCACCTAGTGCAG”, the binding signal falls from 10500 fluorescence intensity (a.u.) to 9320 fluorescence intensity (a.u.).

First: CATATCTCTGCAGTATGTGTTACACTGTCATCTTTTCATGCGGAGTCACCTAGTGCAG
Second: ACTTTCTTTTTCATAATTTCATTTAGTGCTGACTTTGTTGCGGAGTCACCTAGTGCAG
The binding signal of the first is lower: 8350 fluorescence intensity (a.u.) for the first, 8810 fluorescence intensity (a.u.) for the second.

Going from “TGCTTCATATTATAAGTCGTTTATTTTTTTCCTAATCAAACGGAGTCACCTAGTGCAG” to “GGTTGAGGCTGTTTTCCGATCGTTCCGACCGTTTTCATCCCGGAGTCACCTAGTGCAG”, the binding signal falls from 8830 fluorescence intensity (a.u.) to 8700 fluorescence intensity (a.u.).

Going from “TTAAATATTTGAGGGGTCGATATTTCTGGTATTGGTATTACGGAGTCACCTAGTGCAG” to “TTTTATTACCTATATTTCACTTTGGACCACCCTTAAACATCGGAGTCACCTAGTGCAG”, the binding signal falls from 10500 fluorescence intensity (a.u.) to 8410 fluorescence intensity (a.u.).

Going from “ATCTTTGTTCTTGTTTGCTTTCTTCATCTGACGAGTGTTTCGGAGTCACCTAGTGCAG” to “GTTAGTTCATCTCCTCCTTGACCGCGTTTCCATCACTGATCGGAGTCACCTAGTGCAG”, the binding signal rises from 8100 fluorescence intensity (a.u.) to 10700 fluorescence intensity (a.u.).

First: CACTCCCGACCCTTTCCGCATCATCACGCTCACGCAGCCCCGGAGTCACCTAGTGCAG
Second: CGCTCTCGATCACCATCTTCTGCTTCATCCATCATCCACTCGGAGTCACCTAGTGCAG
The binding signal of the first is higher: 8190 fluorescence intensity (a.u.) for the first, 8130 fluorescence intensity (a.u.) for the second.

Compared with “TTCGGAAGCCCATCATCTCATCCGGTTCGTTATTTTTATTCGGAGTCACCTAGTGCAG”, “CTACCTCGGCGACCCGCCATCATGTCGATTGCTCTACGCGCGGAGTCACCTAGTGCAG” is higher in binding signal: 8220 fluorescence intensity (a.u.) for the first, 8350 fluorescence intensity (a.u.) for the second.
